PubChem BioAssay AID1259291, Sanger Institute, 2017

Assay: 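Find kinase and colorectal-cancer-mutated genes whose loss kills HT29 cells or aids anchor drugs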 (primary screen)
System: HT29 human colorectal cancer cells
Reagents: siRNA pool against human genes
Conditions: anchor drugs added a day after transfection: BYL719 at 1 µM, cetuximab at 5 µg/ml or trametinib at 10 nM, or DMSO vehicle alone
Detection: 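Cell viability as a fraction of the non-targeting pool, mean of replicates, robust z-scores from control wells; synergy scores for BYL719 (1 µM), cetuximab (5 µg/ml), trametinib (10 nM)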
Scale: robust z-score, knock-down alone and viability, knock-down alone: higher = more viable cells; synergy score with BYL719 and synergy score with cetuximab and synergy score with trametinib: higher = stronger synergistic killing with drug
Call rule: 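Essential when the robust z-score for knock-down without any drug is below -3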
Meaning of the calls: active = essential (knock-down alone); inactive = no change alone
The deposit covers 794 reagents; this is a random part of them. Of all reagents, 15 (1.9%) are marked active. 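Calls rest on knock-down alone; drug synergy scores do not affect them; drugs added a day post-transfection, DMSO vehicle as comparison.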 Reagents against one gene are numbered here. No viability above 1 is reported: the scale is capped. Reagent sequences are not shown. Not given: the amount of reagent, the time to read-out.

| gene | reagent no. | robust z-score, knock-down alone | viability, knock-down alone (fraction of control) | synergy score with BYL719 | synergy score with cetuximab | synergy score with trametinib | Call |
| --- | --- | --- | --- | --- | --- | --- | --- |
| CDKL3 | 1 | 0.552 | 1 | 0.0248 | 0.0145 | 0.0927 | inactive |
| CRIM1 | 1 | 0.552 | 1 | 0.0357 | 0 | 0.127 | inactive |
| CDK5 | 1 | 0.552 | 1 | 0.0541 | 0.0449 | 0.0853 | inactive |
| PRKCZ | 1 | 0.552 | 1 | -0.0896 | 0 | -0.0802 | inactive |
| DYRK3 | 1 | 0.552 | 1 | -0.0254 | 0 | 0.0201 | inactive |
| ILK | 1 | 0.552 | 1 | -0.0558 | 0.00544 | 0.0245 | inactive |
| ILK | 2 | -0.625 | 0.927 | 0.0984 | 0.042 | 0.197 | inactive |
| STYK1 | 1 | 0.381 | 0.989 | 0.0846 | 0.132 | 0.0406 | inactive |
| CDK7 | 1 | 0.552 | 1 | -0.112 | 0.00957 | 0.0483 | inactive |
| GUK1 | 1 | 0.552 | 1 | -0.133 | 0.103 | 0.0667 | inactive |
| CDK3 | 1 | 0.552 | 1 | 0.0643 | 0.0301 | 0.0285 | inactive |
| BPTF | 1 | 0.552 | 1 | 0.106 | 0.0624 | 0.209 | inactive |
| MAPK14 | 1 | 0.201 | 0.978 | 0.12 | 0.115 | 0.102 | inactive |
| ROCK2 | 1 | 0.194 | 0.978 | -0.115 | 0.00841 | 0.091 | inactive |
| CIT | 1 | -0.0756 | 0.961 | 0.146 | 0.00322 | 0.125 | inactive |
| CAMK2G | 1 | -1.82 | 0.853 | -0.0398 | 0.0112 | 0.0333 | inactive |
| FN3KRP | 1 | -1.85 | 0.851 | -0.0133 | -0.0961 | 0.16 | inactive |
| CALM3 | 1 | -0.582 | 0.93 | -0.0226 | -0.0704 | 0.0694 | inactive |
| FBXW7 | 1 | -0.979 | 0.905 | -0.0541 | 0.0464 | 0.0709 | inactive |
| PHKG2 | 1 | 0.552 | 1 | 0.0137 | 0.0914 | 0.0963 | inactive |
| STK40 | 1 | 0.552 | 1 | 0.167 | 0.103 | 0.132 | inactive |
| TESK1 | 1 | 0.552 | 1 | -0.124 | 0.0361 | 0.011 | inactive |
| PRKAG3 | 1 | 0.552 | 1 | 0.135 | 0.138 | 0.0381 | inactive |
| FGFR3 | 1 | -2.08 | 0.837 | -0.0388 | -0.163 | -0.0213 | inactive |
| DSTYK | 1 | 0.552 | 1 | 0.0421 | 0.0633 | 0.0313 | inactive |
| PKN2 | 1 | 0.552 | 1 | 0.0186 | 0.207 | -0.193 | inactive |
| GSK3B | 1 | 0.552 | 1 | -0.0874 | 0 | -0.154 | inactive |
| PACSIN1 | 1 | 0.552 | 1 | 0.0732 | 0 | 0.0797 | inactive |
| PKM | 1 | 0.356 | 0.988 | -0.112 | -0.0123 | -0.0579 | inactive |
| PFKL | 1 | -1.46 | 0.875 | -0.0918 | -0.0657 | -0.156 | inactive |
| NME1 | 1 | 0.552 | 1 | -0.158 | 0.0148 | -0.0332 | inactive |
| PSTK | 1 | 0.552 | 1 | -0.0159 | 0.0959 | 0.0401 | inactive |
| PIK3CG | 1 | 0.356 | 0.988 | 0.0512 | 0.0399 | 0.0713 | inactive |
| LRRK2 | 1 | 0.552 | 1 | 0.131 | 0 | 0.026 | inactive |
| BRD4 | 1 | 0.552 | 1 | 0.113 | 0 | 0.108 | inactive |
| BMX | 1 | -1.99 | 0.842 | -0.0523 | -0.0394 | 0.0663 | inactive |
| SMG1 | 1 | -1.83 | 0.852 | -0.15 | -0.0564 | -0.108 | inactive |
| RIPK1 | 1 | 0.552 | 1 | -0.00291 | 0 | 0.0223 | inactive |
| GRK5 | 1 | 0.552 | 1 | -0.111 | 0 | 0.0747 | inactive |
| DLG3 | 1 | 0.552 | 1 | 0.0341 | 0 | 0.00705 | inactive |
| TSSK3 | 1 | 0.552 | 1 | -0.0841 | 0 | -0.114 | inactive |
| PRKAB2 | 1 | -1.27 | 0.887 | 0.0134 | -0.0329 | 0.00804 | inactive |
| CDK2 | 1 | 0.552 | 1 | -0.0926 | 0 | 0.0689 | inactive |
| PTK2B | 1 | -1.72 | 0.859 | 0.0832 | 0.0533 | 0.0383 | inactive |
| CRKL | 1 | 0.552 | 1 | 0.0248 | 0.0613 | 0.138 | inactive |
| CDKN1B | 1 | 0.552 | 1 | 0.0344 | 0.0271 | -0.000889 | inactive |
| DBF4 | 1 | 0.552 | 1 | 0.0528 | 0.0285 | -0.0549 | inactive |
| CEP290 | 1 | 0.552 | 1 | 0.053 | 0.0306 | 0.0679 | inactive |
| BCR | 1 | 0.552 | 1 | 0.12 | 0.0288 | 0.184 | inactive |
| PAK2 | 1 | 0.552 | 1 | -0.0858 | 0.0734 | 0.0185 | inactive |
